According to US20260070946A1, “TYR PEPTIDE COMPOSITIONS AND METHODS FOR USE” (UNIVERSITY OF MIAMI, priority 2022, published 2026):
At least one compound was matched to its structure with a doubt left. No end group written: not given here.

System: osteosarcoma cell line MNNG
Assay: Rapid cell proliferation assay, MNNG
Assay type: cell-based
Details: after 48h of incubation (FIG. 11C)
Procedure: The effects of TPA on three osteosarcoma cell lines OSA, KHOS, MNNG was analyzed (FIG. 11). Rapid cell proliferation was measured by a Rapid Cell Proliferation Kit, EMD Biosciences (QIA127). Cells were seeded at 5×10^4 cells/100 μl culture in a multi-well plate and incubated overnight at 37° C. in 5% CO2 incubator. The actual assay was performed the next day. The rapid cell proliferation assay is based on the activity of mitochondrial enzymes active in viable cells. TPA was added to corresponding wells just after seeding, and before overnight incubation. The 96-well assay measures colorimetric product like formazan because of WST-1 tetrazolium salt cleavage by the mitochondrial dehydrogenases. TPA exerted its effect in all cell lines 48 hours after the incubation. […] (FIG. 11)

## SETPEPKGPADPELY [TPA, SETPEPKGPADPELY]
  inhibition/viability: > 50%
